PubChem BioAssay AID1053208 | Peter MacCallum Cancer Centre – 2014
Shown is one part, drawn at random, of about 17,000 reagents. In the full data, 788 (4.7%) are marked active. 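Calls rest on z-score classes alone; an extra cut-off of viability at most 70% of control was not applied to them.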

- Test: 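Find knock-downs that sensitise mouse osteosarcoma cells to doxorubicin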 (primary screen)
- Cell system: mouse osteosarcoma cells, early-passage culture from an engineered mouse model of fibroblastic bone tumour
- Reagents: siRNA pool against mouse genes, 40 nM
- Duration: about 120 h (48 h before drug, then 72 h with drug)
- Challenge: doxorubicin 100 nM for 72 h, roughly 30-40% inhibitory dose
- Measurement: 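Luminescent ATP signal taken as viability with or without 100 nM doxorubicin for 72 h; mean of two wells set against non-targeting siRNA and turned into robust z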
- Direction: viability z-score with doxorubicin and doxorubicin viability vs non-targeting: higher = more viable cells under doxorubicin; viability z-score without drug: higher = more viable cells with knock-down alone; z-score of drug to no-drug ratio: higher = less drug sensitisation by knock-down
- Rule for the call: 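Called active if knock-down leaves viability unchanged without drug (z within -2 to 2) but lowers it with doxorubicin (z at or under -2)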

The opening 7 entries as a preview:
| target gene | combined z-score class | viability z-score with doxorubicin | viability z-score without drug | z-score of drug to no-drug ratio | doxorubicin viability vs non-targeting | call |
| --- | --- | --- | --- | --- | --- | --- |
| Cfh (GeneID 12628) | no change with or without drug | 0.34 | 1.01 | -0.22 | 0.97 | inactive |
| Magee1 (GeneID 107528) | no change with or without drug | 0.22 | -0.84 | 1.01 | 0.96 | inactive |
| Med1 (GeneID 19014) | no change with or without drug | 0.67 | 0.17 | 0.67 | 1 | inactive |
| Dmtf1 (GeneID 23857) | no change with or without drug | 0 | 0 | 0.11 | 0.94 | inactive |
| Myo7b (GeneID 17922) | no change with or without drug | 0.56 | 1.52 | -0.34 | 0.99 | inactive |
| Or5t18 (GeneID 257913) | no change with or without drug | -0.67 | -0.67 | -0.11 | 0.88 | inactive |
| Ddx5 (GeneID 13207) | no change with or without drug | 0 | 0.51 | -0.22 | 0.94 | inactive |

The listing, from the first entry:
| target gene | combined z-score class | viability z-score with doxorubicin | viability z-score without drug | z-score of drug to no-drug ratio | doxorubicin viability vs non-targeting | call |
| --- | --- | --- | --- | --- | --- | --- |
| Cfh (GeneID 12628) | no change with or without drug | 0.34 | 1.01 | -0.22 | 0.97 | inactive |
| Magee1 (GeneID 107528) | no change with or without drug | 0.22 | -0.84 | 1.01 | 0.96 | inactive |
| Med1 (GeneID 19014) | no change with or without drug | 0.67 | 0.17 | 0.67 | 1 | inactive |
| Dmtf1 (GeneID 23857) | no change with or without drug | 0 | 0 | 0.11 | 0.94 | inactive |
| Myo7b (GeneID 17922) | no change with or without drug | 0.56 | 1.52 | -0.34 | 0.99 | inactive |
| Or5t18 (GeneID 257913) | no change with or without drug | -0.67 | -0.67 | -0.11 | 0.88 | inactive |
| Ddx5 (GeneID 13207) | no change with or without drug | 0 | 0.51 | -0.22 | 0.94 | inactive |
| Cpa1 (GeneID 109697) | no change with or without drug | -1.57 | 0.17 | -1.69 | 0.8 | inactive |
| Or7g32 (GeneID 258907) | no change with or without drug | 0.56 | 1.01 | 0 | 0.99 | inactive |
| 4632433K11Rik (GeneID 77043) | no change with or without drug | 1.46 | 0.84 | 1.01 | 1.07 | inactive |
| Ccl5 (GeneID 20304) | no change with or without drug | -0.67 | 0.34 | -0.79 | 0.88 | inactive |
| Mier3 (GeneID 218613) | no change with or without drug | -1.12 | -0.51 | -0.79 | 0.84 | inactive |
| Cenpo (GeneID 52504) | low cell count without drug only | 1.57 | -3.2 | 4.95 | 1.08 | inactive |
| Trim56 (GeneID 384309) | no change with or without drug | 0.79 | -0.84 | 1.57 | 1.01 | inactive |
| V1ra8 (GeneID 113850) | no change with or without drug | -0.9 | 0 | -0.79 | 0.86 | inactive |
| Ephb2 (GeneID 13844) | no change with or without drug | -0.22 | -0.51 | 0.22 | 0.92 | inactive |
| Loxl2 (GeneID 94352) | high cell count with doxorubicin only | 2.02 | 1.18 | 1.35 | 1.12 | inactive |
| Ywhaz (GeneID 22631) | no change with or without drug | -1.24 | 0.34 | -1.35 | 0.83 | inactive |
| Pgcka1 (GeneID 76261) | no change with or without drug | 1.8 | -0.34 | 2.25 | 1.1 | inactive |
| Nim1k (GeneID 245269) | no change with or without drug | 0.45 | -0.17 | 0.67 | 0.98 | inactive |
| Sec22a (GeneID 317717) | no change with or without drug | 0.9 | 0.84 | 0.45 | 1.02 | inactive |
| Vmn1r25 (GeneID 113865) | low cell count with doxorubicin only | -2.02 | 0.17 | -2.14 | 0.76 | active |
| Xcl1 (GeneID 16963) | no change with or without drug | -1.8 | -1.18 | -1.01 | 0.78 | inactive |
| Pah (GeneID 18478) | no change with or without drug | -0.79 | -0.17 | -0.56 | 0.87 | inactive |
| Ccnf (GeneID 12449) | no change with or without drug | -0.34 | 1.18 | -1.01 | 0.91 | inactive |
| Usp37 (GeneID 319651) | no change with or without drug | -0.79 | -0.17 | -0.56 | 0.87 | inactive |
| Zfp93 (GeneID 22755) | no change with or without drug | 1.57 | 1.85 | 0.45 | 1.08 | inactive |
| Dnm2 (GeneID 13430) | low cell count with doxorubicin only | -2.02 | -0.67 | -1.57 | 0.76 | active |
| Htr5b (GeneID 15564) | no change with or without drug | -0.67 | -1.18 | 0.22 | 0.88 | inactive |
| Jade2 (GeneID 76901) | no change with or without drug | -0.9 | 0.51 | -1.12 | 0.86 | inactive |
| Gpc6 (GeneID 23888) | no change with or without drug | -1.8 | -0.67 | -1.35 | 0.78 | inactive |
| Krt7 (GeneID 110310) | no change with or without drug | -0.45 | 0.67 | -0.79 | 0.9 | inactive |
| Pkdrej (GeneID 18766) | no change with or without drug | -0.22 | 0 | -0.11 | 0.92 | inactive |
| Zfp770 (GeneID 228491) | high cell count with doxorubicin only | 2.02 | 1.01 | 1.46 | 1.12 | inactive |
| Pole2 (GeneID 18974) | low cell count with doxorubicin only | -3.37 | -0.84 | -3.04 | 0.64 | active |
| Habp4 (GeneID 56541) | no change with or without drug | -0.67 | -0.34 | -0.34 | 0.88 | inactive |
| Adcy9 (GeneID 11515) | no change with or without drug | 1.35 | 0 | 1.57 | 1.06 | inactive |
| Phgdh (GeneID 236539) | no change with or without drug | -0.45 | -1.01 | 0.34 | 0.9 | inactive |
| Psg18 (GeneID 26438) | no change with or without drug | 1.35 | 0.51 | 1.12 | 1.06 | inactive |
| Top3a (GeneID 21975) | no change with or without drug | 0.45 | 0.34 | 0.34 | 0.98 | inactive |
| Rabggta (GeneID 56187) | no change with or without drug | 0.67 | -0.17 | 0.9 | 1 | inactive |
| Zdhhc4 (GeneID 72881) | no change with or without drug | -1.35 | -0.51 | -1.01 | 0.82 | inactive |
| Ugt2b5 (GeneID 22238) | no change with or without drug | 0 | -0.51 | 0.45 | 0.94 | inactive |
| Vps26c (GeneID 13185) | no change with or without drug | 0.9 | 0.51 | 0.67 | 1.02 | inactive |
| Crisp1 (GeneID 11571) | no change with or without drug | 0.9 | 0 | 1.01 | 1.02 | inactive |
| Amph (GeneID 218038) | no change with or without drug | 0.34 | 1.01 | -0.22 | 0.97 | inactive |
| Sox18 (GeneID 20672) | no change with or without drug | 0.56 | 0.34 | 0.45 | 0.99 | inactive |
| Drd4 (GeneID 13491) | no change with or without drug | 0 | -1.35 | 1.12 | 0.94 | inactive |
| Prune2 (GeneID 353211) | no change with or without drug | 0.34 | 0.51 | 0.11 | 0.97 | inactive |
| Bmp10 (GeneID 12154) | no change with or without drug | 0 | 0.67 | -0.34 | 0.94 | inactive |
| Cd28 (GeneID 12487) | no change with or without drug | 0.9 | -0.17 | 1.24 | 1.02 | inactive |
| Svs5 (GeneID 20944) | no change with or without drug | 0.67 | -0.17 | 0.9 | 1 | inactive |
| Dcaf13 (GeneID 223499) | no change with or without drug | -0.22 | -1.18 | 0.79 | 0.92 | inactive |
| Ppp1r3b (GeneID 244416) | no change with or without drug | 0.9 | 0.51 | 0.67 | 1.02 | inactive |
| Alg3 (GeneID 208624) | no change with or without drug | 0.45 | 1.18 | -0.22 | 0.98 | inactive |
| Camk1g (GeneID 215303) | no change with or without drug | -0.45 | -1.18 | 0.45 | 0.9 | inactive |
| Krt42 (GeneID 68239) | no change with or without drug | -0.45 | 0.84 | -0.9 | 0.9 | inactive |
| Kcnj14 (GeneID 211480) | no change with or without drug | -1.24 | -1.52 | -0.11 | 0.83 | inactive |
| Ubiad1 (GeneID 71707) | low cell count with doxorubicin only | -2.7 | -0.17 | -2.7 | 0.7 | active |
| Spmip5 (GeneID 67507) | no change with or without drug | -0.22 | 0.67 | -0.56 | 0.92 | inactive |
| Alkbh7 (GeneID 66400) | no change with or without drug | -1.46 | 1.18 | -2.14 | 0.81 | inactive |
| Pex6 (GeneID 224824) | no change with or without drug | 1.12 | 1.18 | 0.45 | 1.04 | inactive |
| Sod2 (GeneID 20656) | no change with or without drug | -0.22 | 0.51 | -0.45 | 0.92 | inactive |
